No constants are given. Whether binding was seen depends on the method and setting. Binding seen in cells or lysates may run through a third protein. For some assays here: Binding can be weak; no strength is given. For some assays here: Sequences can lack the tags named with a protein.

Protein sequences, listed by entry. Tags and fused reporters are not part of them.
UniProt Q80TR8: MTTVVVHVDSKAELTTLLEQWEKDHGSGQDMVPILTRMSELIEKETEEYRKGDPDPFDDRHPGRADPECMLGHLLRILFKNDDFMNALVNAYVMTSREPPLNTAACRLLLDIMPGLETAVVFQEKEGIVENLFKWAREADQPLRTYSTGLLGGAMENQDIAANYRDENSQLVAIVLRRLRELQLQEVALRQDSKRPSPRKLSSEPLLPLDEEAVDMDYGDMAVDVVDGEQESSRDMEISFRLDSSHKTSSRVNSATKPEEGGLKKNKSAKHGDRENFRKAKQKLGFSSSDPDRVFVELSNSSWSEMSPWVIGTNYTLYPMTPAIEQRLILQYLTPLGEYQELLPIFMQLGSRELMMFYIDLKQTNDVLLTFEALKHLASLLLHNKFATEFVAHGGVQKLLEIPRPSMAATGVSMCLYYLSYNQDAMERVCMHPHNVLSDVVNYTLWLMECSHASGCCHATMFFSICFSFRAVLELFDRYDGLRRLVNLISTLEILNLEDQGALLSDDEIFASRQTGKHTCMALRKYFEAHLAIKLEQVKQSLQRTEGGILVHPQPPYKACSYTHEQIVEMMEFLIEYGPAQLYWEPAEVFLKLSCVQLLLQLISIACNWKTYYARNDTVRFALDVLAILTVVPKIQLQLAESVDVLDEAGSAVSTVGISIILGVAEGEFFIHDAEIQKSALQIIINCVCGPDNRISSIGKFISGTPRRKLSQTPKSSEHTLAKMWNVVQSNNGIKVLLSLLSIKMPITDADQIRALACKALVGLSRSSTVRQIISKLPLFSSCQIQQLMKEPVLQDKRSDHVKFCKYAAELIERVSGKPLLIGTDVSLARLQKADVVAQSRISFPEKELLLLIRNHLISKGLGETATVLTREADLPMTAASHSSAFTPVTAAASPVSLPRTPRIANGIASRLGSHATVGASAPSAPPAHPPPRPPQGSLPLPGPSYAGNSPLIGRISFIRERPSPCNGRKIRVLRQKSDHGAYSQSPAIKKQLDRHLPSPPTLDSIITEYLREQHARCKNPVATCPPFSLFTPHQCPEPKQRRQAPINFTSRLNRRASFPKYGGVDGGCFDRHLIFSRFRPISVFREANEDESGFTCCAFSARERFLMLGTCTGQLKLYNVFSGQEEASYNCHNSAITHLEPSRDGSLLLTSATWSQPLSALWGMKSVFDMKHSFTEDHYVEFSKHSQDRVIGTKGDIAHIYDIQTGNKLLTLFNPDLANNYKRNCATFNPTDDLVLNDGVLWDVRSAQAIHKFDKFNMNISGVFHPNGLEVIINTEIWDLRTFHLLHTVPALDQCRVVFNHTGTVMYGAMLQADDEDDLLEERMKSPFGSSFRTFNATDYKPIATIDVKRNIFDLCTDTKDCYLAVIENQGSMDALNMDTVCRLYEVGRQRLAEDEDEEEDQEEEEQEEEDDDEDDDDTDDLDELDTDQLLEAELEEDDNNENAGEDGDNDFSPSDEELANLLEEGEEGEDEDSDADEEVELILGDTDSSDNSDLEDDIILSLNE

The target of test [1] is GFP-tagged Uhrf1 RING domain (UniProt Q8VDF2). Kind of test: co-IP; HEK293-EBNA cells co-transfected (or prey endogenous); lysate in 20 mM Tris-HCl pH 8, 150 mM NaCl, 0.5 mM EDTA, 0.5% NP-40; GFP-tagged bait held on GFP-binding nanobody (GBP) beads, 4 °C, 90 min; western blot; untreated or DMSO control cells. A general note: A western blot detects proteins with antibodies after separation by electrophoresis.

For the next test, the target named is GFP-tagged VprBP (mouse) (UniProt Q80TR8). Described as above.
Test [2] concerns the target GFP-tagged Uhrf1 SRA domain (UniProt Q8VDF2). Described as above.
For test [3], the target named is T1, GFP-tagged wild-type Uhrf1 (UniProt Q8VDF2).
T1 sequence: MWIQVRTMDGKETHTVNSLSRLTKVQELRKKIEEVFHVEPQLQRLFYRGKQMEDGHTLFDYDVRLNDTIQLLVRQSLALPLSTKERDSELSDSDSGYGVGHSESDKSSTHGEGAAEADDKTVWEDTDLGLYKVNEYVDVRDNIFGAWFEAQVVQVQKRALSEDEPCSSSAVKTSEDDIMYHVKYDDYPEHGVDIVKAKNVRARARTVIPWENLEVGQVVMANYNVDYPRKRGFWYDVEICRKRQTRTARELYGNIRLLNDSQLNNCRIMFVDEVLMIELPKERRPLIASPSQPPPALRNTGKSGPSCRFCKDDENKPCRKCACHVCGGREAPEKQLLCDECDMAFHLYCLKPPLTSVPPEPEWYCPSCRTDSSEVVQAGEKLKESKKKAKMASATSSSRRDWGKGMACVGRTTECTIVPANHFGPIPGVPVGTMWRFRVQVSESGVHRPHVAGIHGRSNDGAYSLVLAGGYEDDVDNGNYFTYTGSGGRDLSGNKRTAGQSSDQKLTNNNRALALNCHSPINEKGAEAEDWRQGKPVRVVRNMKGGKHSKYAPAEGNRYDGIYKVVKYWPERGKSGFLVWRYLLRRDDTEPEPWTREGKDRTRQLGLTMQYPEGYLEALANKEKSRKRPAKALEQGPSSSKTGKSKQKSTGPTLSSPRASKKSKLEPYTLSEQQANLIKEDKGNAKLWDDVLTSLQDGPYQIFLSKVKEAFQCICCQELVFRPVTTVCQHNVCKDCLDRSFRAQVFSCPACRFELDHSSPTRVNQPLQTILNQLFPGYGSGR
Described as above.

Test [4] addresses T1, GFP-tagged wild-type Uhrf1. Kind of test: condition: only cells treated with pevonedistat (NAE inhibitor) for 24 h; co-IP; as a1, HEK293-EBNA cells transfected with GFP-Uhrf1 and mcherry-Tet1-CD and treated with the NAE inhibitor pevonedistat for 24 h.

For “mcherry-tagged Tet1 catalytic domain (from UniProt Q3URK3-1) (domain or fragment)”, the binding entry is recorded as “binds” in test [1]; “binds” with GFP-tagged VprBP (mouse); “binds” in test [2]; “binds” in test [3]; “no binding” in test [4].

The values above are taken from publication PMC9440122.
